Reference: PubChem BioAssay AID588590 (National Center for Advancing Translational Sciences (NCATS), 2011)
Values joined by “and” are separate entries in the source; they are usually repeats but may differ in a detail not shown here. Equal values may be shown once. In all, about 390,000 compounds went through this assay and about 4,000 (1%) were called active. The shares of active, inactive and inconclusive entries below differ from those in the screen. Calls follow the shape of the dose curve; as a rule, active = well fitted inhibition curve with a large enough effect; inconclusive = small, poorly fitted or top-dose-only effect, or another doubt; inactive = no such curve, though single readings can be large or run the other way. Potencies beside an inconclusive call are fits to weak or partial responses and may not hold up.

The chains behind the UniProt entries cited, without tags or fusion partners. Where a name states a change or a piece, a line headed by the entry shows the natural chain unless it says otherwise.
UniProt Q9UNA4: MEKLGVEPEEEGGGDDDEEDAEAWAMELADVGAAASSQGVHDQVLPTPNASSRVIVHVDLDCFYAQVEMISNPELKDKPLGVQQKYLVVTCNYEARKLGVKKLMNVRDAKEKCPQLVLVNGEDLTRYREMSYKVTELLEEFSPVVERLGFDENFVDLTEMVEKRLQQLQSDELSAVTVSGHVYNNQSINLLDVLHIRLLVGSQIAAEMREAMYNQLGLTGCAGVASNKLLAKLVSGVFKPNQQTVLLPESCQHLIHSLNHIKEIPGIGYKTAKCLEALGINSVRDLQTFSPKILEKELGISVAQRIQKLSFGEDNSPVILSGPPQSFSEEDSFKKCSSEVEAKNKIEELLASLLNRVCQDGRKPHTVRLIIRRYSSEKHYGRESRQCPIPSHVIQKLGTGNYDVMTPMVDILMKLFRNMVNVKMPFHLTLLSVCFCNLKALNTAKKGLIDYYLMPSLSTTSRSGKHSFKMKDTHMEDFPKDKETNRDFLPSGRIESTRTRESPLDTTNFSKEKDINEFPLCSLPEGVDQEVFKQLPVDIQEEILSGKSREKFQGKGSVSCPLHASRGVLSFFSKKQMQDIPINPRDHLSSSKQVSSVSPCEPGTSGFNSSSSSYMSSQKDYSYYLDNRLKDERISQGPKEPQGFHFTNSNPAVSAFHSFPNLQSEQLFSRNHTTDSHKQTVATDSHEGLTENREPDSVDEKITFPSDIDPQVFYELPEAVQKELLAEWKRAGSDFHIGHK

biological target: DNA polymerase iota (Homo sapiens) (UniProt Q9UNA4); assay: qHTS for Inhibitors of Polymerase Iota; conditions: Pol iota fluorescent replication assay, 10 min; series mostly up to 115 µM; activity, negative = inhibition: at the top concentration
Method in brief: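 Pol iota at 10 nM preincubated 15 min with compounds at room temperature; reaction started with fluorescent substrate, 50 nM final. Fluorescence read kinetically at 0 and 10 min; buffer-only wells as negative control.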
Potency is read from the fitted curve at half-maximal effect.

SMILES	activity, negative = inhibition	Potency
O=C(NCc1ccc(-c2nc3ccccc3s2)cc1)c1ccco1	inactive: 31.4%	–
CC(C)=C1C(=O)NN(c2ccc(C)c(Cl)c2)C1=O	–	active: 79.4 µM
COc1ccc(/C=N\NC(=O)c2sc(N)nc2C)cc1OC	–	inconclusive: 10 µM [inhibitor, full curve, poor fit]
O=C(COc1ncnc2scc(-c3ccc(Cl)cc3)c12)NCc1ccco1	–	inconclusive: 17.8 µM [inhibitor, full curve, poor fit]
CCOC(=O)c1sc(=S)n(-c2ccccc2)c1N(C(C)=O)C(C)=O	–	inconclusive: 39.8 µM [inhibitor, partial curve, poor fit]
Cc1ccc(CNc2ncnc3[nH]ncc23)o1	inactive: 2.76%	–
Cc1ccc(/C=C/C(=O)c2nc3ccccc3[nH]2)cc1	–	inconclusive: 12.6 µM [inhibitor, partial curve]
O=[N+]([O-])c1cccc(S(=O)(=O)NCC2CC3CCC2C3)c1 (stereo unspecified)	inactive: 137%	–
O=C(COc1ccc2ccc(=O)oc2c1)NCCc1c[nH]c2ccc(F)cc12	–	inconclusive: 25.1 µM [inhibitor, single point]
Cc1nc(-c2ccc(Cl)cc2)sc1CCNC(=O)c1ccc(C(F)(F)F)cc1	–	inconclusive: 70.8 µM [inhibitor, partial curve, poor fit]
O=C(CCc1nnc(Cc2ccc3c(c2)OCO3)o1)N(CC1CCC1)CC1CCCO1 (stereo unspecified)	–	inconclusive: 39.8 µM [inhibitor, partial curve, poor fit]
C=CCN(CC=C)C(=O)c1ccc(OC2CCN(C(C)=O)CC2)c(OC)c1	–	inconclusive: 89.1 µM [inhibitor, single point]
CCN(CC)C(=O)[C@H]1C[C@H](CC(=O)NC/C=C(\C)CCC=C(C)C)C(=O)N2CCc3c([nH]c4cc(CCC(=O)N(C)C)ccc34)[C@]12C	–	inconclusive: 39.8 µM [inhibitor, single point]
O=C(CN1CCN(Cc2ccccc2)CC1)NC(c1ccccc1)c1ccccc1	–	inconclusive: 12.6 µM [inhibitor, partial curve, poor fit]
COc1ccc(C(c2c(C)[nH][nH]c2=O)c2c(C)[nH][nH]c2=O)cc1Br	–	inconclusive: 39.8 µM [inhibitor, single point]
Cc1ccccc1Cn1c(=O)n(CCc2ccccc2)c(=O)c2c(C)c(C)sc21	inactive: 18.5%	–
Fc1ccc(-c2n[nH]c(=S)n2CC2CCCO2)cc1 (stereo unspecified)	–	inconclusive: 39.8 µM [inhibitor, single point]
O=C(Nc1ccn(C2CC(OC(=O)c3ccccc3)C(CO)O2)c(=O)n1)c1ccccc1 (stereo unspecified)	–	inconclusive: 20 µM [inhibitor, single point]
Cc1ccc2cc(/C=C3\N=C(c4ccccc4)OC3=O)c(N3CCOCC3)nc2c1	–	inconclusive: 35.5 µM [inhibitor, single point]
COc1cc(OC)c(C2Nc3ccccc3-c3nnc(SCc4ccccc4)nc3O2)cc1OC (stereo unspecified)	–	inconclusive: 89.1 µM [inhibitor, single point]
O=C(CCn1ccc2cc(S(=O)(=O)N3CCCC3)ccc21)NCc1cccc(F)c1	–	inactive and inconclusive: 11.2 µM [inhibitor, partial curve, poor fit]

A second format for 2 compounds above:
SMILES,"activity, negative = inhibition",Potency
Cc1nc(-c2ccc(Cl)cc2)sc1CCNC(=O)c1ccc(C(F)(F)F)cc1,–,"inconclusive: 70.8 µM [inhibitor, partial curve, poor fit]"
C=CCN(CC=C)C(=O)c1ccc(OC2CCN(C(C)=O)CC2)c(OC)c1,–,"inconclusive: 89.1 µM [inhibitor, single point]"

2 neighbouring records already listed:
SMILES	activity, negative = inhibition	Potency
O=[N+]([O-])c1cccc(S(=O)(=O)NCC2CC3CCC2C3)c1 (stereo unspecified)	inactive: 137%	–
O=C(COc1ccc2ccc(=O)oc2c1)NCCc1c[nH]c2ccc(F)cc12	–	inconclusive: 25.1 µM [inhibitor, single point]

Continuation:

SMILES	activity, negative = inhibition	Potency
COc1ccc(-c2nc3c4ccccc4[nH]c(=O)n3n2)cc1	–	inconclusive: 25.1 µM [inhibitor, single point]
Cc1ccc(OCc2cc(C(=O)Nc3ccccc3)oc2C)cc1	–	inconclusive: 1.12 µM [inhibitor, full curve, poor fit]
O=C1C=C(c2cccs2)CC(c2cccs2)C1n1cnc([N+](=O)[O-])c1 (stereo unspecified)	–	inconclusive: 39.8 µM [inhibitor, single point]
CC1(C)C(=O)Nc2ccccc2N1C(=O)COC(=O)CSc1ccc(Cl)cc1	–	inconclusive: 25.1 µM [inhibitor, partial curve]
Cc1ccccc1OCCC(=O)Nc1ccc2c(C)cc(=O)oc2c1	–	inconclusive: 79.4 µM [inhibitor, single point]
O=C(CSc1nnc(NC(=O)C2CC(=O)N(c3ccc(F)cc3)C2)s1)NC1CCCC1 (stereo unspecified)	–	inconclusive: 20 µM [inhibitor, single point]
Nc1nc2ccccc2n1CCOc1ccc(Br)cc1	inactive: 27.6%	–
CC(Sc1nnc(CNC(=O)c2ccccc2F)n1C)C(=O)Nc1nccs1 (stereo unspecified)	–	inconclusive: 89.1 µM [inhibitor, single point]
Cc1oc(C)c2c(=O)cc(-c3ccc4c(c3)OCO4)cc(OC(=O)c3ccccc3Cl)c12	–	active: 79.4 µM
CS(=O)(=O)C1=NN2C(=N)/C(=C\c3ccc(OCCOc4ccccc4)cc3)C(=O)N=C2S1	–	inconclusive: 12.6 µM [inhibitor, full curve, poor fit]
CC(C)CNc1nc(Oc2ccc(OCC(N)=O)nn2)nc(N2CCOCC2)n1	inactive: 6.93%	–
Cc1ccc(OCCNC(=O)c2ccc3ccccc3n2)cc1	–	inconclusive: 89.1 µM [inhibitor, single point]
O=C(CN1CCSCC1)N/N=C/c1ccc(F)c(F)c1	–	inconclusive: 6.31 µM [inhibitor, partial curve, poor fit]
COc1ccc(CN2CCn3nc(C(=O)NC4CC4)cc3C2=O)cc1	inactive: 42.5%	–
CSc1nsc(/C=C/Nc2ccc(F)cc2)c1C#N	–	inconclusive: 25.1 µM [inhibitor, single point]
CCOC(=O)c1cc(-c2ccccc2)n(CCC(=O)Nc2ccc(Cl)c(C(F)(F)F)c2)c1C	inactive: 6.04%	–
COc1ccc(Br)cc1CNC(=O)CN1C(=O)C(c2ccccc2)Oc2cccnc21 (stereo unspecified)	–	inconclusive: 31.6 µM [inhibitor, full curve, poor fit]
CCOc1ccc(/C=N/NC(=O)c2[nH]c3ccc(C)cc3c2C)cc1	–	inconclusive: 35.5 µM [inhibitor, partial curve, poor fit]
CCn1cc(C(=O)NCc2ccc(C)cc2)c(=O)c2cc(S(=O)(=O)N3CCCCCC3)ccc21	–	inconclusive: 89.1 µM [inhibitor, partial curve, poor fit]
C#CCOCCOCCOCCNc1nc(N2CCN(C(=O)[C@H](Cc3cc4ccccc4[nH]3)n3cc([C@@H](N)CC(C)C)nn3)CC2)nc(N2CCN(C(=O)[C@H](Cc3cc4ccccc4[nH]3)n3cc([C@@H](N)CC(C)C)nn3)CC2)n1	–	inconclusive: 12.6 µM [inhibitor, partial curve, poor fit]
Cc1cc(C)c(C(=O)O)c(Cl)n1	–	inconclusive: 79.4 µM [inhibitor, single point]

SMILES	activity, negative = inhibition	Potency
CN1C(=O)CC(C(=O)O)SC1=Nc1cc(Cl)c(O)c(Cl)c1 (stereo unspecified)	–	inconclusive: 50.1 µM [inhibitor, partial curve, poor fit]
COc1ccc(C(NC(=O)/C=C/c2ccco2)c2ccc(OC)c(OC)c2)cc1 (stereo unspecified)	–	inconclusive: 79.4 µM [inhibitor, single point]
Oc1ccc(C[C@H]2CNCCN2CCc2cccc3ccccc23)cc1	–	inconclusive: 25.1 µM [inhibitor, partial curve, poor fit]
O=C1c2c(O)cc(O)cc2O[C@H](c2ccc(O)cc2)[C@H]1O	inactive: -14.8%	–
O=C(N/N=C/c1cccc(O)c1)c1cc(-c2ccc3c(c2)OCO3)n[nH]1	–	inconclusive: 20 µM [inhibitor, full curve]
Cc1cc(C)c2c(c1)/C(=c1/sc3n(c1=O)CN(c1ccccc1)CN=3)C(=O)N2	–	inconclusive: 39.8 µM [inhibitor, single point]
O=C(Nc1ccc(-c2nc3ncccc3o2)cc1)c1ccco1	–	inconclusive: 50.1 µM [inhibitor, partial curve, poor fit]
O=C(Nc1ccc(Br)cc1Cl)c1cnccn1	–	inconclusive: 31.6 µM [inhibitor, partial curve, poor fit]
Cc1ccc(C)c(CSC2=NN3CCCC(=O)N=C3S2)c1	inactive: -24.7%	–
Cc1cccc(N2CCN(C3(c4ccccc4)C(=O)c4ccccc4C3=O)CC2)c1C	inactive: -9.71%	–
C=Cc1ccc(C(=O)N2CCCC(CCC(=O)N3CCN(c4ccccn4)CC3)C2)cc1 (stereo unspecified)	–	inconclusive: 89.1 µM [inhibitor, single point]
COc1cccc(C(=O)N(Cc2ccc3c(c2)OCO3)Cc2nc3ccccc3c(=O)[nH]2)c1	–	inconclusive: 31.6 µM [inhibitor, single point]
COc1ccc(C)cc1NC(=O)c1cnc2scc(C)n2c1=O	–	inconclusive: 25.1 µM [inhibitor, partial curve, poor fit]
NC(=O)C1CCN(C(=O)CN2CCc3ccccc32)CC1	–	inconclusive: 39.8 µM [inhibitor, single point]
C=CC[C@]12CC=CC(=O)[C@@]1(O)O[C@H](c1ccc(OC)c(OC)c1)[C@H]2C	–	inconclusive: 89.1 µM [inhibitor, single point]
C/C(=C\[C@@H](NP(=O)(c1ccccc1)c1ccccc1)c1ccccc1)CO[Si](c1ccccc1)(c1ccccc1)C(C)(C)C	–	inconclusive: 39.8 µM [inhibitor, partial curve, poor fit]
O=C1NC(c2ccccn2)Nc2sc3c(c21)CCC3 (stereo unspecified)	–	inconclusive: 22.4 µM [inhibitor, partial curve]
COc1ccccc1C(=O)Nc1nnc(SCC(=O)Nc2ccc3c(c2)oc2ccccc23)s1	–	inconclusive: 39.8 µM [inhibitor, single point]
COc1ccccc1/C=C(\C#N)C(=O)Nc1ccc(S(N)(=O)=O)cc1	–	inconclusive: 28.2 µM [inhibitor, full curve, poor fit]
